Some of the results follow.
Compound: CC1Cc2ccccc2N1C(=O)C1CCCN(C1)C(=O)CCl (mixture of isomers) [TRIM25 ligand 11 (diastereomer mixture)]
Test: probe-labelled cysteine peptide fold change vs DMSO (competition) (log2 fold change); higher = less target engagement (more negative = stronger competition)
Conditions: THP-1, incubation time: 4 h
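Also: competitive chemoproteomic profiling in live THP-1 cells with an iodoacetamide desthiobiotin (IA-DTB) probe, comparing probe-labelled peptide intensities in compound-treated cells against DMSO-treated controls.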

Chains of the proteins cited; added tags and fusions are not shown. Lines headed by an entry give the natural chain unless they say otherwise; changes in a name come on top.
UniProt O95801: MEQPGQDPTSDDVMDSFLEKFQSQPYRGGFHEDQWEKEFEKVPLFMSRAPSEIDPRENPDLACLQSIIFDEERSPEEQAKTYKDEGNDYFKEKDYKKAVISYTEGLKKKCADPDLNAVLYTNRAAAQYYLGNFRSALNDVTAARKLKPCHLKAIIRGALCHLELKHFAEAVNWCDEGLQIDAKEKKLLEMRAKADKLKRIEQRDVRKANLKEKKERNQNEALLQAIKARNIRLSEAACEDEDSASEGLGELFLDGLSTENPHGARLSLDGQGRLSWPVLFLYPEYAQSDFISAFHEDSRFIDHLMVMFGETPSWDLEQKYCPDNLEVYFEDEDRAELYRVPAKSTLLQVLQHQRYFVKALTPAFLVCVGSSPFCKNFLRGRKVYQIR
UniProt Q9GZX9: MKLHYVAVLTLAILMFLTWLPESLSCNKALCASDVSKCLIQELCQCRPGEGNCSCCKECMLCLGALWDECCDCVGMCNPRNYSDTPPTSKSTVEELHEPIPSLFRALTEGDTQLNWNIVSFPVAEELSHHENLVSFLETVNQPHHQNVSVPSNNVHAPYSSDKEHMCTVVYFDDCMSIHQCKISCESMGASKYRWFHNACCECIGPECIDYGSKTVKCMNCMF
UniProt Q6PGP7, whole entry, looked up: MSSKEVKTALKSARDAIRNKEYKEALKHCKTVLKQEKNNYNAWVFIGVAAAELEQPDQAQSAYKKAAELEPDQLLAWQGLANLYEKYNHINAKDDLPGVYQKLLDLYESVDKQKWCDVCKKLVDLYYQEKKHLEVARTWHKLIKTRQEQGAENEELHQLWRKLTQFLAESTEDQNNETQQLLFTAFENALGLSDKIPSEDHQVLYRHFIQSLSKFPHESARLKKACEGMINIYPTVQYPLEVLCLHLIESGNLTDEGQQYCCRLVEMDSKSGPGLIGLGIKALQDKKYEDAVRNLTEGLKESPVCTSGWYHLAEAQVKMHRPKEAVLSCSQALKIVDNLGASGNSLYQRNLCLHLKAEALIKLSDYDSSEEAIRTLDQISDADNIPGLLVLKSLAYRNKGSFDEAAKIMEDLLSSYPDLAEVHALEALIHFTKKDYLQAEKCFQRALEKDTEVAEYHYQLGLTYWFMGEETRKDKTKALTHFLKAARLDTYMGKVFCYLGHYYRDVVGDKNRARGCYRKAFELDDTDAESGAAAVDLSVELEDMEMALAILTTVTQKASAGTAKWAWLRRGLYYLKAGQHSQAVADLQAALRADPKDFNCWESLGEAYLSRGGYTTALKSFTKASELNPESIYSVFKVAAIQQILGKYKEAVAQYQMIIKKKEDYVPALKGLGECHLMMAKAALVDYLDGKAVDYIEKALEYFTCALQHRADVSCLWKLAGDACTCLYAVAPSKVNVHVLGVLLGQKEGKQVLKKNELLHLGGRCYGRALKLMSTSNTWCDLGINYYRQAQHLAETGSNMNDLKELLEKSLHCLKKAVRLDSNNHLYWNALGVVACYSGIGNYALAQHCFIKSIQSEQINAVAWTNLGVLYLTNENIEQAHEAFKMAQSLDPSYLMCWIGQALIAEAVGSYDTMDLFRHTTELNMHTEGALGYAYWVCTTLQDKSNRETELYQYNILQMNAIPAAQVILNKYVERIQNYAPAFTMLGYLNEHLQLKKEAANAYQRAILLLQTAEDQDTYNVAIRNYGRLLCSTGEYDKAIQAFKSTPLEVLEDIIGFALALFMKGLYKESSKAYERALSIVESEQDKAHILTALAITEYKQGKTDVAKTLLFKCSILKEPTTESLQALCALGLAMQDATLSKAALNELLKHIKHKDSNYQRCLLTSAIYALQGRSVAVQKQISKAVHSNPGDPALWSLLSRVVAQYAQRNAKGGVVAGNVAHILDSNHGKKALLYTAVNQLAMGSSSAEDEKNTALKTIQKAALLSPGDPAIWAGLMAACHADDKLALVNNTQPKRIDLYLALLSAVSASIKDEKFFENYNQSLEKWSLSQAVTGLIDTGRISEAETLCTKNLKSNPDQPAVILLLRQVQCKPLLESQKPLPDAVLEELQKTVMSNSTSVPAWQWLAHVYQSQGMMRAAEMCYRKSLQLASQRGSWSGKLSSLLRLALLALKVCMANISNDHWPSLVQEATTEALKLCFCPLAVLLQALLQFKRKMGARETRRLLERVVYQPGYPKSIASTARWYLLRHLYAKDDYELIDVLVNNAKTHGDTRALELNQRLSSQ
UniProt Q9H4B7, whole entry: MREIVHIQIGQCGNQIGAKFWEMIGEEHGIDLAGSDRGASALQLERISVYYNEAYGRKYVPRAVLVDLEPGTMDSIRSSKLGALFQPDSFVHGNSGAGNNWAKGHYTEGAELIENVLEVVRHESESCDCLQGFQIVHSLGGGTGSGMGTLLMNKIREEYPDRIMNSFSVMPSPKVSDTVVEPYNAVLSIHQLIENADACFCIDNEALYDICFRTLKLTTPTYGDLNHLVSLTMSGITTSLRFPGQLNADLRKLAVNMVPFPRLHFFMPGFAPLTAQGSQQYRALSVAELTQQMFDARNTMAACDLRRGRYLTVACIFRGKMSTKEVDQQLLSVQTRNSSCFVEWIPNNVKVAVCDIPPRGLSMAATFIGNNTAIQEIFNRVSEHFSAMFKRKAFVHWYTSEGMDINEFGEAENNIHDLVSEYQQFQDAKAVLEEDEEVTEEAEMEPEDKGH
UniProt Q96Q11: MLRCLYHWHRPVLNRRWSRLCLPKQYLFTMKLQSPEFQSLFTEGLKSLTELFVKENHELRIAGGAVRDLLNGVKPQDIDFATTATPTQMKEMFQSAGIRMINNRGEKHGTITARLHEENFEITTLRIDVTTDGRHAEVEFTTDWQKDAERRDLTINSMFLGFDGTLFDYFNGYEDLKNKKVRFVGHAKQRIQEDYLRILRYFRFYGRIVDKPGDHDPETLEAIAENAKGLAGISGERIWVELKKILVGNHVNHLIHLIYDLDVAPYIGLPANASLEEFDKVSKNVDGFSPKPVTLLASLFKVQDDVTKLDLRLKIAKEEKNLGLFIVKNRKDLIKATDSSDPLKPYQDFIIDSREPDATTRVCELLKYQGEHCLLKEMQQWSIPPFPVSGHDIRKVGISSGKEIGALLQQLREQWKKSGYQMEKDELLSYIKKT
UniProt Q5VYS8: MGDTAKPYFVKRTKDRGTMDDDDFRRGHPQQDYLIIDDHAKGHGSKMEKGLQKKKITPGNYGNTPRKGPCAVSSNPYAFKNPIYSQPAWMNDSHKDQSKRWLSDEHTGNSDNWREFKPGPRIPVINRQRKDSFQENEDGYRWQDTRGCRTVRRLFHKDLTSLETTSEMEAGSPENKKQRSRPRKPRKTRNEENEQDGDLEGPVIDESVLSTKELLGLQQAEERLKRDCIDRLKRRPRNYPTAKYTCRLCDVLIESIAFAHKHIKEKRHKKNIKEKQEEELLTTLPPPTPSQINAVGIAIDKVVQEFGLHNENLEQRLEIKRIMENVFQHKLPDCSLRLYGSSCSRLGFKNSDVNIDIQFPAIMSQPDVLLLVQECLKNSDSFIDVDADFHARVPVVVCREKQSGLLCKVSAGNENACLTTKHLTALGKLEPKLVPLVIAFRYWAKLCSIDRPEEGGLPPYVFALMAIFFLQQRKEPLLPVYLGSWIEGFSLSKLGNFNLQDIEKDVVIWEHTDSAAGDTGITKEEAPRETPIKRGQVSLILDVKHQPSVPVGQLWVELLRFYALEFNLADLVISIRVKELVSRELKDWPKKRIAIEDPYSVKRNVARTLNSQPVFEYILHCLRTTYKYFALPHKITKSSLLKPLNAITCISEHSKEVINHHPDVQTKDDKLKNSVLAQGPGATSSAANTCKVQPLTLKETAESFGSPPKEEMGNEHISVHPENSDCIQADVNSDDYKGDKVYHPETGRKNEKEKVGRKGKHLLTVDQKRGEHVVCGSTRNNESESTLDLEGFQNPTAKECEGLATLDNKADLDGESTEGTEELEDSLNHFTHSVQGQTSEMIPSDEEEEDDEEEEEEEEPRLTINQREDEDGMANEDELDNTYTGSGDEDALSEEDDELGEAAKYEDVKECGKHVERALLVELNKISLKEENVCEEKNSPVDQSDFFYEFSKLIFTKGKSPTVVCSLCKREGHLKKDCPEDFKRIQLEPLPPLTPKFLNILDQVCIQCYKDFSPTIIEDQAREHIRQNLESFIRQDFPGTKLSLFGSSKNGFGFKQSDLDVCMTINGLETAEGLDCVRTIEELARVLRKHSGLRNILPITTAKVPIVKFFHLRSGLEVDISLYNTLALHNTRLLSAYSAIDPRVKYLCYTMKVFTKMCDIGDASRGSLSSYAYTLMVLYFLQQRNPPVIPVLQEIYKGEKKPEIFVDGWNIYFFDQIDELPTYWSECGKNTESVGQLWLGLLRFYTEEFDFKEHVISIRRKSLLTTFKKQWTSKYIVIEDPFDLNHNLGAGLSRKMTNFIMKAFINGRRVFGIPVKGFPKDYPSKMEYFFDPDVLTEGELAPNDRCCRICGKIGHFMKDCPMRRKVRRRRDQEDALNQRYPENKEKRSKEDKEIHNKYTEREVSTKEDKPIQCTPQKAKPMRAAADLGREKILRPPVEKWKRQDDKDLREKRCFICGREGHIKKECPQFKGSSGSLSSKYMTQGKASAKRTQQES
UniProt Q14166: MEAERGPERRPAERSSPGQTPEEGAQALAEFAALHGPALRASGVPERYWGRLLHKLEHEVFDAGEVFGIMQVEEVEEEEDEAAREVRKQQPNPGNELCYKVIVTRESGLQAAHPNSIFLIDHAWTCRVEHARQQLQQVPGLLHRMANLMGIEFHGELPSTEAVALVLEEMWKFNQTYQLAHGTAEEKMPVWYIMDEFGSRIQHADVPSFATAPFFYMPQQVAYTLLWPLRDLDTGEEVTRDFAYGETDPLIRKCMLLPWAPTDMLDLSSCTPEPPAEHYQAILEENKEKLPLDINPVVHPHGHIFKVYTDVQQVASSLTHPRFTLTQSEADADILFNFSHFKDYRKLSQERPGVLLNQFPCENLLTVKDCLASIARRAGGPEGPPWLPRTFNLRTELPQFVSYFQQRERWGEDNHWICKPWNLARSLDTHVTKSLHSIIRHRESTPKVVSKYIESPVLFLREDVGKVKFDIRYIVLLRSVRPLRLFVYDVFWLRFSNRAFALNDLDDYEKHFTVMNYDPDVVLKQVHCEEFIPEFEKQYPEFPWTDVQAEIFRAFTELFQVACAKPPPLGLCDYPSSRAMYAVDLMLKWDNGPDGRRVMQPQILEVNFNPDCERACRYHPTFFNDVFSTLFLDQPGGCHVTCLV
UniProt Q3B726, whole entry, looked up: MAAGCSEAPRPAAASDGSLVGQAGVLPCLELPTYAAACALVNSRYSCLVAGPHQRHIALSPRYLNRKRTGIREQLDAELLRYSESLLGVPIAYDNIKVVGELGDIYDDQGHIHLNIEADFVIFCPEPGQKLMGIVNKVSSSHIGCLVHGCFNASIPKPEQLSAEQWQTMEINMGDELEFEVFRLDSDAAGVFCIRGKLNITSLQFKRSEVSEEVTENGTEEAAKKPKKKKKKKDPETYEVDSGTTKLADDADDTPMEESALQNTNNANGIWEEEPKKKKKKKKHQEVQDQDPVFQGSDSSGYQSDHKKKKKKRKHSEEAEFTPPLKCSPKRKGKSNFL
UniProt Q8N0Z6: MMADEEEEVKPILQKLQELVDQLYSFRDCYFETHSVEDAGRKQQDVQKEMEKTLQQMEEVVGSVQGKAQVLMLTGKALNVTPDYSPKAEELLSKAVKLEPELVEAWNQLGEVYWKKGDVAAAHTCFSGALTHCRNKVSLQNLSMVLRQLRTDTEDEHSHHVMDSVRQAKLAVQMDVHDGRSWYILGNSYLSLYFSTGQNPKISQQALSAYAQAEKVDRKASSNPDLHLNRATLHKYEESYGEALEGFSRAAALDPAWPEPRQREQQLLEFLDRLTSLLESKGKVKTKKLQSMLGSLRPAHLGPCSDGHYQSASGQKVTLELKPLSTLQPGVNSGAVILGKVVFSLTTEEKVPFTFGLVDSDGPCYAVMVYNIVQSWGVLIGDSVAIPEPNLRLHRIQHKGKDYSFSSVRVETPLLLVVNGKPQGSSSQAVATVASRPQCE

| Target | probe-labelled cysteine peptide fold change (10 µM) | probe-labelled cysteine peptide fold change (50 µM) |
| --- | --- | --- |
| TTC4_O95801_174_HFAEAVNWCDEGLQIDAK (UniProt O95801) | -0.0931 | 0.216 |
| TWSG1_Q9GZX9_185_ISCESMGASK (UniProt Q9GZX9) | -0.181 | -0.0805 |
| TTC37_Q6PGP7_305_ESPVCTSGWYHLAEAQVK (UniProt Q6PGP7) | -0.0017 | 0.0178 |
| TUBB1_Q9H4B7_12_MREIVHIQIGQCGNQIGAK (UniProt Q9H4B7) | 0.489 | 0.674 |
| TSC1_Q92574_259_RLETHDVVIECAK (UniProt Q92574) | 0.188 | 0.372 |
| TRNT1_Q96Q11_373_YQGEHCLLK (UniProt Q96Q11) | -0.0617 | -0.146 |
| TUT7_Q5VYS8_417_VSAGNENACLTTK (UniProt Q5VYS8) | 0.0456 | 0.0596 |
| TTLL12_Q14166_418_ERWGEDNHWICKPWNLAR (UniProt Q14166) | -0.426 | -0.297 |
| TTC7A_Q9ULT0_77_LLLAEALLEQCLK (UniProt Q9ULT0) | 0.394 | 0.169 |
| TWISTNB_Q3B726_193_LDSDAAGVFCIR (UniProt Q3B726) | 0.298 | 0.202 |
| TRMT2A_Q8IZ69_243+260_CEFLVGVGVDGEDNTVGCR (UniProt Q8IZ69) | 0.183 | 0.123 |
| TTLL12_Q14166_370_DCLASIAR (UniProt Q14166) | -0.0183 | -0.00856 |
| TTLL12_Q14166_612_RVMQPQILEVNFNPDCER (UniProt Q14166) | -0.104 | -0.0281 |
| TTC5_Q8N0Z6_29_DCYFETHSVEDAGR (UniProt Q8N0Z6) | -0.00474 | 0.0453 |

Record cards, as listed above. Values in the order: probe-labelled cysteine peptide fold change (10 µM) | probe-labelled cysteine peptide fold change (50 µM)
TUT7_Q5VYS8_417_VSAGNENACLTTK (UniProt Q5VYS8) in the list: 0.0456 | 0.0596
TRNT1_Q96Q11_373_YQGEHCLLK (UniProt Q96Q11) in the list: -0.0617 | -0.146
